From PubChem BioAssay (EPA / NIEHS)
Values joined by “and” are separate entries in the source; they are usually repeats but may differ in a detail not shown here. Equal values may be shown once. This list was built around the results that the source calls inconclusive (neither active nor inactive); the mix of calls is not that of the screen. For some of these results: Where the call is inconclusive, the potency comes from a doubtful curve fit. Active and inactive are the calls of the source. Rule for the calls: active = hit-call score of the fitted dose curve at least 0.9, where 1 is the maximum; inconclusive = response in the unintended direction; inactive = score below 0.9. Peptide text beside a SMILES is read from it.

The chains behind the UniProt entries cited, without tags or fusion partners. Where a name states a change or a piece, a line headed by the entry shows the natural chain unless it says otherwise.
UniProt P04150: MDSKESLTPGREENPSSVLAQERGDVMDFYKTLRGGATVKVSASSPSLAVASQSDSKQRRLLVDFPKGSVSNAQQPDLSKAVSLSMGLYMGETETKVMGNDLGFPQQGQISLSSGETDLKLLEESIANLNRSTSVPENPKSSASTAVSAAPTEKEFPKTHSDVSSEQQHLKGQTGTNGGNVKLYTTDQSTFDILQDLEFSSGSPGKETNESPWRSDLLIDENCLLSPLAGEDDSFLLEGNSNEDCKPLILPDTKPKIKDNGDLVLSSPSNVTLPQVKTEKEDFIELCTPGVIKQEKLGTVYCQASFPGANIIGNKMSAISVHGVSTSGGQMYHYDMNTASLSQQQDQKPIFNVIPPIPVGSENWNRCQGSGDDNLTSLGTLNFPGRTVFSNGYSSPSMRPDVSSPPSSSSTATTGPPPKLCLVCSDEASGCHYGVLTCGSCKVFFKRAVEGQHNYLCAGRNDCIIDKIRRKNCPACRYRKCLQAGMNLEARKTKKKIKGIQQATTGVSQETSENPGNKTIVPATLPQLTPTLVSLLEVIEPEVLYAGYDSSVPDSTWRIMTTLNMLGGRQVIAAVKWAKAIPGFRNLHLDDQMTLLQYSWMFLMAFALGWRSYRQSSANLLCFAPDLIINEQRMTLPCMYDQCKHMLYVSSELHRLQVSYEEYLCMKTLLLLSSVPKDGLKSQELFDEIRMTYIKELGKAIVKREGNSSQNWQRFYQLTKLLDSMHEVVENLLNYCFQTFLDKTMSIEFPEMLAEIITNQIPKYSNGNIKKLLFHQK
UniProt Q96RI1: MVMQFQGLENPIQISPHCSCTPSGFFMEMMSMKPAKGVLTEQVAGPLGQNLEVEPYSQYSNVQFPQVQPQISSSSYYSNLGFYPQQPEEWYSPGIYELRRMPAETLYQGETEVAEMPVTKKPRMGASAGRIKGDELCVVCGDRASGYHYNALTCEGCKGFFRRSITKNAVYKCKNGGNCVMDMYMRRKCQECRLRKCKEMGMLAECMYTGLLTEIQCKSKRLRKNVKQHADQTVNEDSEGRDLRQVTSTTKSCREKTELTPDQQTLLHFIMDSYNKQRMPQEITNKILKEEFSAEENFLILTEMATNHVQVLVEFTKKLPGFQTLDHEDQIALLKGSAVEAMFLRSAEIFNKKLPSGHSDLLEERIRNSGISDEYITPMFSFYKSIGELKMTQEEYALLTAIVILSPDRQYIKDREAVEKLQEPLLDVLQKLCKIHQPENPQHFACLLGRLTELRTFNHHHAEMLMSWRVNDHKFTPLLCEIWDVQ
UniProt O75469: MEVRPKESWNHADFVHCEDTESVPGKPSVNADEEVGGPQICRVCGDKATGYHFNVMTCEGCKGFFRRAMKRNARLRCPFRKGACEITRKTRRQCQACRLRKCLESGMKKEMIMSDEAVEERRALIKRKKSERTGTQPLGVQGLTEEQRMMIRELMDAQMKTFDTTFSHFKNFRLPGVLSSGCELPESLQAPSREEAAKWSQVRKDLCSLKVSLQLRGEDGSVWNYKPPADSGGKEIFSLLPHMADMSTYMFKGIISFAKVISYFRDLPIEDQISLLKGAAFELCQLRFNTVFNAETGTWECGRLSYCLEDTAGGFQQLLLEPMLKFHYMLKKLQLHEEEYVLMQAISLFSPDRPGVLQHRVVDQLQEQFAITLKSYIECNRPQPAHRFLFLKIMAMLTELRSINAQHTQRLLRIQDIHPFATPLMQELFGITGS
UniProt Q01717: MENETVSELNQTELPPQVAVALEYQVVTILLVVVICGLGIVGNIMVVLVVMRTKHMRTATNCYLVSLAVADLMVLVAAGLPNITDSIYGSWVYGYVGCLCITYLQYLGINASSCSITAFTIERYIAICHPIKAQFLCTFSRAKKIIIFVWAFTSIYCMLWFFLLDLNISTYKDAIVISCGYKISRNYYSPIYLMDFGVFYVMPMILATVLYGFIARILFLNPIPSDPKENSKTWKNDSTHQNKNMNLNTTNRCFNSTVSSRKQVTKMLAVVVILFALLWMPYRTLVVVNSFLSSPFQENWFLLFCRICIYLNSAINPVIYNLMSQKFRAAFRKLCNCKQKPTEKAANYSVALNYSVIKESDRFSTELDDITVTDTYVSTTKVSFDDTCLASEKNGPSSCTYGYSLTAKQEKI
UniProt P04637, whole entry, looked up: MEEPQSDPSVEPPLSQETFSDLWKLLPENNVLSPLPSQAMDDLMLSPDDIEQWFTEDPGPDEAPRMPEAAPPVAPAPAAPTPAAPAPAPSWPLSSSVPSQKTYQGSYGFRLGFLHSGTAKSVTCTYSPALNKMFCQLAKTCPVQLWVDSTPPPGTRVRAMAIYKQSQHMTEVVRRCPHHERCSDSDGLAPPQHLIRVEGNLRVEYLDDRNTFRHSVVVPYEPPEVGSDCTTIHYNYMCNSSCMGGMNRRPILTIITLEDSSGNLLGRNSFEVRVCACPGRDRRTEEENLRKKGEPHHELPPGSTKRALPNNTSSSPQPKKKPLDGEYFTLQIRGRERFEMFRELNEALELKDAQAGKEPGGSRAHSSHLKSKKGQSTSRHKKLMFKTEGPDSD
UniProt P19793: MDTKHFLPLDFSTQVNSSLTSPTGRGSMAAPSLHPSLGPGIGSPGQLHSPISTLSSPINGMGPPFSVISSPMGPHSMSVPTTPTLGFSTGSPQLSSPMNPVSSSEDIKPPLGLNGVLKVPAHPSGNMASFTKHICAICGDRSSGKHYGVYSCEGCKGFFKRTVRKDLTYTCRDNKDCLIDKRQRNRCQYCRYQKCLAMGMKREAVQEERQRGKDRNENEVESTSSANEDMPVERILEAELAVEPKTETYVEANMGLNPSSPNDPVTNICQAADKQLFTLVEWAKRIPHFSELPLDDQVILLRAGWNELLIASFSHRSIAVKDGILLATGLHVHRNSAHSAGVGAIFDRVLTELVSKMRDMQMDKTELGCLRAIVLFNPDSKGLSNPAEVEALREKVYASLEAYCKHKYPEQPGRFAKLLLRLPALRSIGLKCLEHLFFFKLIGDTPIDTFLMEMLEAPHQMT
UniProt P37231: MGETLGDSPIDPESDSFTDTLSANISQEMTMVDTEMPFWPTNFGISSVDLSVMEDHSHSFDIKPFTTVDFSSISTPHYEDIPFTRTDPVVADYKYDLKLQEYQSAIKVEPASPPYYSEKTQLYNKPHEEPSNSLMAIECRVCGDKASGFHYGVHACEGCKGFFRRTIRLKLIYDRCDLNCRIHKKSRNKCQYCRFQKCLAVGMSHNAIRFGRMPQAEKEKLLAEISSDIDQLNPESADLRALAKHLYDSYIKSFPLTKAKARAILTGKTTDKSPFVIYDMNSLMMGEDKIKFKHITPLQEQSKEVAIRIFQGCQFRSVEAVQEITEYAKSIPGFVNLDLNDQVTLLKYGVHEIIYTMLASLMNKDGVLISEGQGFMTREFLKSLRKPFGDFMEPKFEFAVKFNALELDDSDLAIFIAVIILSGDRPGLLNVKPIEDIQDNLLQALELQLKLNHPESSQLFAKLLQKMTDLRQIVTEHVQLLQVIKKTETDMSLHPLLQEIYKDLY
UniProt P11473: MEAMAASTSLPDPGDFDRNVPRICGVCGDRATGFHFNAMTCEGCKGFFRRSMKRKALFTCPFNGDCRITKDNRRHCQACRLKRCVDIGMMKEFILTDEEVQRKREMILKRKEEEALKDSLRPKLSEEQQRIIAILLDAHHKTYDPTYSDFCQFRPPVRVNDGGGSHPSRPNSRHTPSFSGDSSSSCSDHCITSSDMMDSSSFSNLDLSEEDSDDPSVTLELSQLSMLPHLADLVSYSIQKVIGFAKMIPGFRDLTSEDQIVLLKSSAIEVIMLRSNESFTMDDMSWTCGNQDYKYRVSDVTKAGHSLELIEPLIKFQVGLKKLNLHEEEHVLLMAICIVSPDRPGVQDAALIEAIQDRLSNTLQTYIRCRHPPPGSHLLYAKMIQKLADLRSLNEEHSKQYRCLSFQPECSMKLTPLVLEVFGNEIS
UniProt P62508: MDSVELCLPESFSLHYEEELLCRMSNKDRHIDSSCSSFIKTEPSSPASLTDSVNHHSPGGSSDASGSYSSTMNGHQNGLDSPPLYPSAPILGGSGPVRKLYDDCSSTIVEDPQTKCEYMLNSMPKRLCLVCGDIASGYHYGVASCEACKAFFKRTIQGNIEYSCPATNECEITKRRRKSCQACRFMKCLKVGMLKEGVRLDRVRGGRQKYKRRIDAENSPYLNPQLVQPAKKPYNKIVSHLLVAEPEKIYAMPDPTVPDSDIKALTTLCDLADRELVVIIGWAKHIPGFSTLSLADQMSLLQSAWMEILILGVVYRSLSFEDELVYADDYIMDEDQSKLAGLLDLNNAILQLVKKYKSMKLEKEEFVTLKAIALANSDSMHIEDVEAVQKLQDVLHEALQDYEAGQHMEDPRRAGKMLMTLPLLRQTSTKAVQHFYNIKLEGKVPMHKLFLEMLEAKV
UniProt Q03181: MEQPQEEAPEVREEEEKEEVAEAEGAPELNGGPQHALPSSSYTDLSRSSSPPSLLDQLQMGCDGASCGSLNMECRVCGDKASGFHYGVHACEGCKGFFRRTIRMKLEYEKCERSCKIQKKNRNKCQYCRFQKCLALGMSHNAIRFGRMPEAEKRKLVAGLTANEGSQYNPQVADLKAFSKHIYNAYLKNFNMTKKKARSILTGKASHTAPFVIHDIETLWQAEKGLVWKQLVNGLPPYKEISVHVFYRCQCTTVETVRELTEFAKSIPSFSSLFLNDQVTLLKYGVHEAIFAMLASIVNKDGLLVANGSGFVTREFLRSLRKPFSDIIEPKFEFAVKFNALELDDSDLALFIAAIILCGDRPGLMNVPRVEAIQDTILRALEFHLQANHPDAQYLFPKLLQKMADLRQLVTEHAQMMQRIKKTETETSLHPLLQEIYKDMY

What was measured:
[1] = biological target: Glucocorticoid receptor (Homo sapiens) (UniProt P04150); experiment: ATG_GR_TRANS: Attagene TRANS-FACTORIAL HepG2 Assay for human Glucocorticoid Receptor (GR) (AID 2282978); conditions: HepG2 Attagene TRANS GR reporter, mRNA transcription;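 note: activators score as hits since higher reporter transcript over DMSO is fitted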
How it was run: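 In this trans-factorial format, exogenous NR-GAL4 chimeric proteins in transfected HepG2 cells regulate GAL4-UAS reporter transcription. After 24 h treatment, reporter mRNA induction relative to DMSO is read by RT-PCR and capillary electrophoresis.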

[2] = biological target: Bile acid receptor (Homo sapiens) (UniProt Q96RI1); experiment: ATG_FXR_TRANS: Attagene TRANS-FACTORIAL HepG2 Assay for Farnesoid X Receptor (FXR) (AID 2282979); conditions: HepG2 Attagene TRANS FXR-GAL4 reporter transcription;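 note: hits raise reporter mRNA above DMSO so AC50 marks FXR activation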
How it was run: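 Chimeric FXR-GAL4 activity in transiently transfected human HepG2 liver cells is scored as induction of reporter mRNA after 24 h of dosing. Detection uses RT-PCR with fluorescent labelling and capillary electrophoresis, with DMSO serving as baseline.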

[3] = biological target: Nuclear receptor subfamily 1 group I member 2 (Homo sapiens) (UniProt O75469); experiment: ATG_PXR_TRANS: Attagene TRANS-FACTORIAL HepG2 Assay for human Pregnane X Receptor (PXR) (AID 2283008)
How it was run: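 Transient HepG2 transfectants carrying multiplexed reporter transcription units; PXR activity read through a Gal4 chimera. 24 h exposure. RT-PCR/CE fluorescence; upward curve fit referenced to DMSO.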

[4] = biological target: rat Thyrotropin Releasing Hormone Receptor (TRH), Trhr (gene 25570) (UniProt Q01717); experiment: NVS_GPCR_rTRH: NovaScreen (NVS) G Protein-Coupled Receptor Assay for rat Thyrotropin Releasing Hormone Receptor (TRH) (AID 2283329);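 note: hit means lower bound tracer signal versus DMSO baseline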
How it was run: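 Cell-free radioligand binding on rat forebrain membranes; bound tracer measured by filter-based scintillation counting 4 hours after dosing. Loss of signal versus DMSO baseline indicates displacement; primary screen at 25 uM in duplicate, actives then run in concentration series.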

[5] = biological target: Cellular tumor antigen p53 (Homo sapiens) (UniProt P04637); experiment: TOX21_p53_BLA_p2_ratio: Tox21 HCT-116 p53 Agonism Beta-lactamase Assay, Ratio, Phase 2 (AID 2283592)
How it was run: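 Cleaved-to-uncleaved substrate ratio (460 vs 530 nm) measured in HCT116 cells with an inducible beta-lactamase reporter linked to p53 activity. Compounds incubated 16 h at 37C before 2 h room-temperature CCF4-AM loading.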

[6] = biological target: Cellular tumor antigen p53 (Homo sapiens) (UniProt P04637); experiment: TOX21_p53_BLA_p3_ratio: Tox21 HCT-116 p53 Agonism Beta-lactamase Assay, Ratio, Phase 3 (AID 2283596)
How it was run: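 Cells were seeded at 4000/well, rested 5 h at 37C, then dosed with DMSO compound solutions (217-fold dilution) for 16 h. CCF4-AM substrate was loaded for 2 h at room temperature, and the 460/530 nm emission ratio was fitted for gain of signal versus DMSO.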

[7] = biological target: Cellular tumor antigen p53 (Homo sapiens) (UniProt P04637); experiment: TOX21_p53_BLA_p5_ratio: Tox21 HCT-116 p53 Agonism Beta-lactamase Assay, Ratio, Phase 5 (AID 2283599)
How it was run: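 Beta-lactamase reporter ratio (blue 460 nm over green 530 nm, 405 nm excitation) after 2 h CCF4-AM loading, in HCT-116 cells exposed 16 h at 37 C to compounds pinned at 217-fold dilution. Increases relative to DMSO baseline scored.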

[8] = ATG_M_06_TRANS: Attagene TRANS-FACTORIAL HepG2 Assay for M06 Transcription Factor (Internal Marker) (AID 2282983); conditions: HepG2 Attagene TRANS M06 internal marker reporter;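 for AC50: potency for rise in reporter mRNA above DMSO baseline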;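 for outcome: reporter transcript level by RT-PCR then capillary electrophoresis fluorescence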
How it was run: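 Human liver HepG2 cells bearing transiently transfected chimeric NR-GAL4 reporter units were treated with chemicals for 24 h. Total RNA was reverse-transcribed, reporter sequences amplified and labelled, then quantified by capillary electrophoresis. Activity was fitted upward relative to DMSO.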

[9] = ATG_M_32_TRANS: Attagene TRANS-FACTORIAL HepG2 Assay for M32 Transcription Factor (Internal Marker) (AID 2282984); conditions: HepG2 Attagene TRANS M32 internal marker reporter;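 note: transcript level of a background control reporter unit measured by RT-PCR and capillary electrophoresis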
How it was run: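 Cell-based TRANS-format assay in HepG2: exogenous chimeric GAL4 reporter units transiently expressed, compounds applied 24 h. Reporter mRNA detected by RT-PCR plus capillary electrophoresis; this readout is an internal background marker.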

[10] = biological target: Retinoic acid receptor RXR-alpha (Homo sapiens) (UniProt P19793); experiment: OT_NURR1_NURR1RXRa_0480: Odyssey Thera (OT) 8-hour HEK293T Protein Complementation Assay for Nurr1/retinoid X receptor (RXR) (AID 2283385)
How it was run: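 Gain in fluorescent complementation signal over DMSO, measured 8 hours after chemical dosing of human kidney HEK293T cells, indicated enhanced Nurr1–RXRα association.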

[11] = ATG_XTT_Cytotoxicity: Cytotoxicity Assessment in the Attagene TRANS-FACTORIAL HepG2 Assay (AID 2283584);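 for AC50: XTT signal for cell number as viability in transfected HepG2 cells; cells exposed to compound for 24 h before reading; active means loss of viability signal versus DMSO baseline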
How it was run: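 Transfect HepG2 with GAL4-UAS reporter units, dose compound, incubate 24 h, then measure viable cell number by XTT. Fit concentration response against DMSO baseline.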

[12] = ACEA_AR_agonist_AUC_viability: ACEA Biosciences xCELLigence Real-Time Cell Analysis on Androgen Receptor Agonism for Viability (AID 2283775);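 for AC50: viability read 80 hours after compound addition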
How it was run: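 Viability endpoint from xCELLigence impedance in 22Rv1 prostate cells at 80 h. Eight-point series, 100 uM maximum final.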

[13] = ATG_M_19_TRANS: Attagene TRANS-FACTORIAL HepG2 Assay for M19 Transcription Factor (Internal Marker) (AID 2282974); conditions: HepG2 Attagene TRANS-FACTORIAL M19 internal marker reporter
How it was run: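 Cells: human HepG2, transiently transfected with multiplexed reporter transcription units. Exposure: 24 h. Detection: RT-PCR of reporter mRNA with capillary electrophoresis. Analysis: gain-of-signal vs DMSO.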

[14] = biological target: Peroxisome proliferator-activated receptor gamma (Homo sapiens) (UniProt P37231); experiment: ATG_PPARg_TRANS: Attagene TRANS-FACTORIAL HepG2 Assay for human Peroxisome Proliferator-activated Receptor-gamma (PPARg) (AID 2283007)
How it was run: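 A TRANS-format multiplexed reporter assay measures activity of an exogenous chimeric NR-Gal4 protein in HepG2 cells. After 24 h of chemical exposure, reporter transcripts are amplified, fluorescently labelled and sized by capillary electrophoresis, with gain of signal scored against DMSO.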

[15] = biological target: human Vitamin D Receptor (VDR), VDR (gene 7421) (UniProt P11473); experiment: ATG_VDR_TRANS: Attagene TRANS-FACTORIAL HepG2 Assay for human Vitamin D Receptor (VDR) (AID 2283022)
How it was run: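 Fluorescence of labelled reporter cDNA fragments, resolved by capillary electrophoresis, gives mRNA induction after 24 h treatment of HepG2 cells carrying transfected Gal4-fusion reporter units. Activity is fitted in the positive direction with DMSO as baseline.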

[16] = CCTE_Harrill_HTTr_CellCount_MCF7: CCTE's Cell Proliferation Assessment for the High-Throughput Transcriptomics (HTTr) Platform, Harrill Lab (AID 2284012);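 note: count of Hoechst-stained nuclei per well by high-content imaging in MCF-7 cells; cells exposed to compound for six hours; intended direction is loss of nuclei count meaning fewer cells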
How it was run: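 For this full-screen endpoint, MCF-7 cultures received eight compound dilutions for six hours. Well nuclei counts from Hoechst imaging were analyzed relative to DMSO.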

[17] = biological target: Estrogen-related receptor gamma (Homo sapiens) (UniProt P62508); experiment: ATG_ERRg_TRANS: Attagene TRANS-FACTORIAL HepG2 Assay for human Estrogen-Related Receptor gamma (ERRg) (AID 2282977); conditions: HepG2 Attagene TRANS reporter, ERRg transactivation;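 note: hits increase reporter signal over DMSO so potencies reflect activators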
How it was run: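 Exogenous NR-Gal4 chimera activity was assessed in HepG2 cells bearing transfected GAL4-UAS reporters. After 24 h dosing, total RNA underwent RT-PCR, fluorescent primer extension and HpaI digestion before capillary electrophoresis, with gain of signal scored against DMSO.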

[18] = biological target: Nuclear receptor subfamily 1 group I member 2 (Homo sapiens) (UniProt O75469); experiment: NVS_NR_hPXR: NovaScreen (NVS) Nuclear Receptor Binding Assay for human Pregnane X Receptor (PXR) (AID 2283365);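 note: a drop in FRET signal versus DMSO baseline means the compound binds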
How it was run: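 Binding was measured by time-resolved fluorescence resonance energy transfer after a 2 h exposure of extracted human PXR protein without cells. Compounds were first tested at 25 uM in duplicate, with concentration series for actives; DMSO defined baseline.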

[19] = biological target: human Peroxisome Proliferator-activated Receptor delta (PPARd), PPARD (gene 5467) (UniProt Q03181); experiment: ATG_PPARd_TRANS: Attagene TRANS-FACTORIAL HepG2 Assay for human Peroxisome Proliferator-activated Receptor delta (PPARd) (AID 2283002)
How it was run: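 Read-out is induced reporter mRNA, quantified by RT-PCR with fluorescent labelling and capillary electrophoresis after 24 h dosing. Cells are HepG2 transiently carrying multiple GAL4-UAS reporter units driven by exogenous NR-GAL4 chimeras; DMSO serves as baseline.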

[20] = biological target: Retinoic acid receptor RXR-alpha (Homo sapiens) (UniProt P19793); experiment: OT_NURR1_NURR1RXRa_1440: Odyssey Thera (OT) 24-hour HEK293T Protein Complementation Assay for Nurr1/retinoid X receptor (RXR) (AID 2283386)
How it was run: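 Cell-based binding reporter: HEK293T cells, 24 h exposure, fluorescence-detected fragment complementation, DMSO as baseline.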

## COC(=O)[C@H](Cc1ccccc1)NC(=O)[C@@H](N)CC(=O)O (HELM PEPTIDE1{D.F.[CO[*:1]]}$$$$V2.0)
[1]
  outcome: inactive
[2]
  AC50: inconclusive: 22.6 µM
[3]
  outcome: inactive
[4]
  outcome: inactive
[5]
  outcome: inactive
[6]
  AC50: inconclusive: 46.1 µM
  outcome: inactive
[7]
  AC50: inconclusive: 46.1 µM

## CC1CC(OC(=O)c2ccccc2O)CC(C)(C)C1 (stereo not drawn)
[1]
  AC50: inconclusive: 0.073 µM
[8]
  AC50: inconclusive: 0.561 µM
[9]
  outcome: inactive
[4]
  AC50: inconclusive: 0.00229 µM
[10]
  AC50: active: 92.8 µM
[11]
  AC50: inconclusive: 100 µM
[5]
  AC50: inconclusive: 23 µM
[7]
  AC50: inconclusive: 46.1 µM and inconclusive: 45.7 µM
[12]
  AC50: inconclusive: 16.6 µM

## CCCCC[C@H](O)CC(=O)CCc1ccc(O)c(OC)c1
[13]
  AC50: inconclusive: 100 µM
[8]
  outcome: inactive
[14]
  AC50: active: 27.8 µM
[3]
  AC50: active: 27.6 µM
[15]
  outcome: inactive
[11]
  AC50: inconclusive: 100 µM
[12]
  AC50: inconclusive: 0.797 µM
[16]
  outcome: inactive

## COc1ccccc1N=Nc1c(S(=O)(=O)O)cc2cc(S(=O)(=O)O)cc(NC(C)=O)c2c1O
[17]
  AC50: inconclusive: 95 µM
[14]
  outcome: inactive
[18]
  AC50: inconclusive: 8.97 µM
[11]
  AC50: inconclusive: 95 µM

## C#CC(C)(O)CC(C)C (stereo not drawn)
[17]
  AC50: inconclusive: 0.00914 µM
[1]
  AC50: inconclusive: 100 µM
[8]
  AC50: inconclusive: 100 µM
[19]
  AC50: inconclusive: 100 µM
[14]
  outcome: inactive
[4]
  AC50: inconclusive: 25 µM
[18]
  AC50: inconclusive: 25 µM
[6]
  AC50: inconclusive: 46.1 µM
[7]
  outcome: inactive

## CCN(CC)c1ccc(C(=C2C=CC(=[N+](CC)CC)C=C2)c2ccc(S(=O)(=O)O)cc2S(=O)(=O)[O-])cc1
[17]
  outcome: inactive
[8]
  outcome: inactive
[18]
  AC50: inconclusive: 1.32 µM
[10]
  AC50: inconclusive: 0.945 µM
[20]
  AC50: inconclusive: 0.6 µM
[11]
  outcome: inactive
[7]
  AC50: inconclusive: 46.1 µM
[12]
  outcome: inactive
